# Assay results published in the supplement of paper PMC7666118.
# Amino acid sequences for entries named in this document (tags omitted). A change or cut given only in a name is not applied to a line headed by its entry.
# UniProt P40425: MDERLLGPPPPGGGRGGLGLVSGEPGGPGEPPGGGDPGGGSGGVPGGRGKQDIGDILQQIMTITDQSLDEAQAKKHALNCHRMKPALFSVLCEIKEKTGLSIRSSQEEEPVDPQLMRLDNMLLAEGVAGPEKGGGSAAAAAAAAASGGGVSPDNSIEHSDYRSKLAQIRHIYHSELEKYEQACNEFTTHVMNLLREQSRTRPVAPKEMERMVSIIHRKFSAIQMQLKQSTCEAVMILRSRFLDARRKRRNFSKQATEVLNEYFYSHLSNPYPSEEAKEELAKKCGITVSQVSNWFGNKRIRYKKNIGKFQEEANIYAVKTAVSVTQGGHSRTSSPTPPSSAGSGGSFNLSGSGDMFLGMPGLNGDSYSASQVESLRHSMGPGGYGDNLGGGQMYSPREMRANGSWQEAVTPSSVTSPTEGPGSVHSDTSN
# UniProt Q99447: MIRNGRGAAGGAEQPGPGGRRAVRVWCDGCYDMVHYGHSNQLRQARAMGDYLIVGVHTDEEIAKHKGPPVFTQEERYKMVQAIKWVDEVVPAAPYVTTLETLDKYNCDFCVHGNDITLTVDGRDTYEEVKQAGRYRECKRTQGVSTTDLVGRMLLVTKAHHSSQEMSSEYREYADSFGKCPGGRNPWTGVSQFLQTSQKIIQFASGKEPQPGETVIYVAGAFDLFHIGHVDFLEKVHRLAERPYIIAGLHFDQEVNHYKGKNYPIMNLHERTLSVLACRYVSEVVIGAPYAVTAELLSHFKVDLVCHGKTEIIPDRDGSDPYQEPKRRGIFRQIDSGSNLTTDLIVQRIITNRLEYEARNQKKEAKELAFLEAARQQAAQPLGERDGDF
# UniProt Q6L8Q7: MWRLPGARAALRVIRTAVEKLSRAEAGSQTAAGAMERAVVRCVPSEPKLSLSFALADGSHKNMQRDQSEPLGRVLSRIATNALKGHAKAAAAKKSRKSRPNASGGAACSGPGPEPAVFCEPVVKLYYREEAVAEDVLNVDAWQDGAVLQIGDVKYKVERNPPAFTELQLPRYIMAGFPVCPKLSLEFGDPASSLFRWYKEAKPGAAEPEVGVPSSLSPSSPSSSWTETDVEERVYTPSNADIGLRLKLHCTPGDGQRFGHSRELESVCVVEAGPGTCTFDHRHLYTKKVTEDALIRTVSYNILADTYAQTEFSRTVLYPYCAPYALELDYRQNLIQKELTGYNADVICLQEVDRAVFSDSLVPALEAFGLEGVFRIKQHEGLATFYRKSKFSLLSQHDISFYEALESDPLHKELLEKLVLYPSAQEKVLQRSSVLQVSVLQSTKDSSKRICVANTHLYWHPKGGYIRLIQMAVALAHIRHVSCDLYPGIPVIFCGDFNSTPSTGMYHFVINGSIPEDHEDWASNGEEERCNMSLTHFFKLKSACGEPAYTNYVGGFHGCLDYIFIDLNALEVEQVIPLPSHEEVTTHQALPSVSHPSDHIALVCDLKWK
# UniProt O15504: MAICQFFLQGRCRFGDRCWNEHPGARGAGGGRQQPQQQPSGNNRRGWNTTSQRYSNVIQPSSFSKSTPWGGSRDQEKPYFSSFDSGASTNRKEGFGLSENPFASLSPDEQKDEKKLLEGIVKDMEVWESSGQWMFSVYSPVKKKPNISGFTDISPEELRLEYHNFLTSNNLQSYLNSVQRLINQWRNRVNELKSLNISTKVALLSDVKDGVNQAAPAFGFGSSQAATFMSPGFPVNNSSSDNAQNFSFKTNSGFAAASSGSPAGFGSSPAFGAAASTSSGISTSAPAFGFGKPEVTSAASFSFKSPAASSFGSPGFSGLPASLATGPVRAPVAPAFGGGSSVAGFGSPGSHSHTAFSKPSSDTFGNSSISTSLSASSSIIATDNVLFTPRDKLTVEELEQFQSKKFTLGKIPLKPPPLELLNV
# UniProt Q9P2J9: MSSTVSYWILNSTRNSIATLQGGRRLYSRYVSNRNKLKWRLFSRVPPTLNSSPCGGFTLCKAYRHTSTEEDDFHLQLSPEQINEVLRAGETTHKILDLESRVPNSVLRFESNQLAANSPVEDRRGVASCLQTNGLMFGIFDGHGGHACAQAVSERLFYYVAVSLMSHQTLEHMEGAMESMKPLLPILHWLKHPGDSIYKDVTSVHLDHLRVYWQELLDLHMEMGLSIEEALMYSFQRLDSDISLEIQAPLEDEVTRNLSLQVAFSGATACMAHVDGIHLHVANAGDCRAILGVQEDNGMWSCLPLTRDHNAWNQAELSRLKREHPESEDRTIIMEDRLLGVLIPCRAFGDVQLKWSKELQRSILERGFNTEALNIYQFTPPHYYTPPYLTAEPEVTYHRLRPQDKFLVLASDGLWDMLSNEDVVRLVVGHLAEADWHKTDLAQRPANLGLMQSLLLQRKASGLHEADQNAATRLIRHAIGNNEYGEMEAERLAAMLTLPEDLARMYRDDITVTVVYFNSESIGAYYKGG
# UniProt Q92882: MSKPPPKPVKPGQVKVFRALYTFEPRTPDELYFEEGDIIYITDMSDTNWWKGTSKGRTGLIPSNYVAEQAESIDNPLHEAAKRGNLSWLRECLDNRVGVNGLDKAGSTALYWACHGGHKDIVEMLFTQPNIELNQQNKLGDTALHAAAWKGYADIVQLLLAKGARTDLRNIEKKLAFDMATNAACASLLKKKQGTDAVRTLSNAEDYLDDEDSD
# UniProt Q96DE0: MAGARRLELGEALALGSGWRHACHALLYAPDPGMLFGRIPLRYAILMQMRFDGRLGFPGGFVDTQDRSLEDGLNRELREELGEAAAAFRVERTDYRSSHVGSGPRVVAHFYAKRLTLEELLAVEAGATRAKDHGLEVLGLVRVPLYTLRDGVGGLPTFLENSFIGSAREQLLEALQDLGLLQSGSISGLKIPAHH
# UniProt P49585: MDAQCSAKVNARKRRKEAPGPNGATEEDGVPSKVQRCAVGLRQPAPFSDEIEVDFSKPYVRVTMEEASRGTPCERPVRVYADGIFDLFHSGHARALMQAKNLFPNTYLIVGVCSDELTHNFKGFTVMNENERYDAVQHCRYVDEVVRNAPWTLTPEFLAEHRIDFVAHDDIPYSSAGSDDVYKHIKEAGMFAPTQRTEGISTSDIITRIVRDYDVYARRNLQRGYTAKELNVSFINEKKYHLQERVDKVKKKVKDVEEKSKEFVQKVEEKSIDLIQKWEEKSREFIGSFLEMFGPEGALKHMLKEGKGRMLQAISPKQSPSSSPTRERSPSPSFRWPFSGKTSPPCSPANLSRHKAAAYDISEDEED
# UniProt Q96G91: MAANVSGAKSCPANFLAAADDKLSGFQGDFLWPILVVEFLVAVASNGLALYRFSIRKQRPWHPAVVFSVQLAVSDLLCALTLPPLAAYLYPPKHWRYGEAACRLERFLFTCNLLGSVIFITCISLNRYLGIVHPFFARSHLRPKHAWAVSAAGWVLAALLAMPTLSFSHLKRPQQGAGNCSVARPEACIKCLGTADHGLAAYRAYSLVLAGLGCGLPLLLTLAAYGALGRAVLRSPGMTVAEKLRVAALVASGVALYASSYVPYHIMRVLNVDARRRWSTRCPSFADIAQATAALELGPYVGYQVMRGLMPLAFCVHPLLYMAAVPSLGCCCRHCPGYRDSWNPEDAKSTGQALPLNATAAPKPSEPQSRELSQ
# UniProt Q9BWT3: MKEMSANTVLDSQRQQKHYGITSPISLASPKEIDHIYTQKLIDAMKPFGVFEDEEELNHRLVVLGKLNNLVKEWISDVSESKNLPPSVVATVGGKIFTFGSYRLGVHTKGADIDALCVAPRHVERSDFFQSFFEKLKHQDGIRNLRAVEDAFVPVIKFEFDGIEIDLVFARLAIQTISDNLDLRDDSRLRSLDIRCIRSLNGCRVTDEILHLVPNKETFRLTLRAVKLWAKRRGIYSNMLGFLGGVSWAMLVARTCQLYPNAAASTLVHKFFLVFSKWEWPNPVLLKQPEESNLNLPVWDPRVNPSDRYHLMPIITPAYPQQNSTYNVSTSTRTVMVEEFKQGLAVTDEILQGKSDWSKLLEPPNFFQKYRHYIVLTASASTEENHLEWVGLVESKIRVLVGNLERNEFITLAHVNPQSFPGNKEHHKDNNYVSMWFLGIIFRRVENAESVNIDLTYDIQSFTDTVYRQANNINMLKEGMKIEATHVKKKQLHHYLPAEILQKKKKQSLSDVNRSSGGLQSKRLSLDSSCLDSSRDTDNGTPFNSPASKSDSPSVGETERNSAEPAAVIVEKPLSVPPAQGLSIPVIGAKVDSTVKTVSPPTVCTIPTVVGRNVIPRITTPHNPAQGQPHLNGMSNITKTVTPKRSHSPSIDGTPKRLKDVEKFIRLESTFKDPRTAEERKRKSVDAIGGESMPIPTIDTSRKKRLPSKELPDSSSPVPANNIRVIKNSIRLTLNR
# UniProt Q53GL7: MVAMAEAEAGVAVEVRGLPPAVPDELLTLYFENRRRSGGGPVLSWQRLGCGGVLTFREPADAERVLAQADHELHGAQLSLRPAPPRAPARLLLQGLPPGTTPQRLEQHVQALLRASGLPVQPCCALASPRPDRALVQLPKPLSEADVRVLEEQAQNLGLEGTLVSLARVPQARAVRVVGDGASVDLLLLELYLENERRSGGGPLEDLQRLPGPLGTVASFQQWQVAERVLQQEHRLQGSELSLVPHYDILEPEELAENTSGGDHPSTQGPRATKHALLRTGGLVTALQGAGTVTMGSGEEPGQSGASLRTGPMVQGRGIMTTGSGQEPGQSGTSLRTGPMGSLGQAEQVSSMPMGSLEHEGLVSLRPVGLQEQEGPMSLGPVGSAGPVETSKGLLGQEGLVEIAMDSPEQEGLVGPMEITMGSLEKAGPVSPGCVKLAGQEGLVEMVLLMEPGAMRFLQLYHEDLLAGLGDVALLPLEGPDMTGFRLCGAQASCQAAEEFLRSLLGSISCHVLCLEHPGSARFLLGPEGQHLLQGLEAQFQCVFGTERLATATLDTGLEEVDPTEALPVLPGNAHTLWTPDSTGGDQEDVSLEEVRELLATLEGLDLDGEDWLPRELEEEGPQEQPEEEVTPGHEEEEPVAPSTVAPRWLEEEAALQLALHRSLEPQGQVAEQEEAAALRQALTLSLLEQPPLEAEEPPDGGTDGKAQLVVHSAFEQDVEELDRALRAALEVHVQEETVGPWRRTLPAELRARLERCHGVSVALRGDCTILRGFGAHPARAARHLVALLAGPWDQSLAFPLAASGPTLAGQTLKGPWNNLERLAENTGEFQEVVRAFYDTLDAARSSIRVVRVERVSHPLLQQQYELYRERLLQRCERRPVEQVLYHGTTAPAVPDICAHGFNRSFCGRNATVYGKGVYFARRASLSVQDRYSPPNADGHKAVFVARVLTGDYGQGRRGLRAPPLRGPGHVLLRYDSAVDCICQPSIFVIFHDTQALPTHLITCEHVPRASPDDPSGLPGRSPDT
# UniProt O15294: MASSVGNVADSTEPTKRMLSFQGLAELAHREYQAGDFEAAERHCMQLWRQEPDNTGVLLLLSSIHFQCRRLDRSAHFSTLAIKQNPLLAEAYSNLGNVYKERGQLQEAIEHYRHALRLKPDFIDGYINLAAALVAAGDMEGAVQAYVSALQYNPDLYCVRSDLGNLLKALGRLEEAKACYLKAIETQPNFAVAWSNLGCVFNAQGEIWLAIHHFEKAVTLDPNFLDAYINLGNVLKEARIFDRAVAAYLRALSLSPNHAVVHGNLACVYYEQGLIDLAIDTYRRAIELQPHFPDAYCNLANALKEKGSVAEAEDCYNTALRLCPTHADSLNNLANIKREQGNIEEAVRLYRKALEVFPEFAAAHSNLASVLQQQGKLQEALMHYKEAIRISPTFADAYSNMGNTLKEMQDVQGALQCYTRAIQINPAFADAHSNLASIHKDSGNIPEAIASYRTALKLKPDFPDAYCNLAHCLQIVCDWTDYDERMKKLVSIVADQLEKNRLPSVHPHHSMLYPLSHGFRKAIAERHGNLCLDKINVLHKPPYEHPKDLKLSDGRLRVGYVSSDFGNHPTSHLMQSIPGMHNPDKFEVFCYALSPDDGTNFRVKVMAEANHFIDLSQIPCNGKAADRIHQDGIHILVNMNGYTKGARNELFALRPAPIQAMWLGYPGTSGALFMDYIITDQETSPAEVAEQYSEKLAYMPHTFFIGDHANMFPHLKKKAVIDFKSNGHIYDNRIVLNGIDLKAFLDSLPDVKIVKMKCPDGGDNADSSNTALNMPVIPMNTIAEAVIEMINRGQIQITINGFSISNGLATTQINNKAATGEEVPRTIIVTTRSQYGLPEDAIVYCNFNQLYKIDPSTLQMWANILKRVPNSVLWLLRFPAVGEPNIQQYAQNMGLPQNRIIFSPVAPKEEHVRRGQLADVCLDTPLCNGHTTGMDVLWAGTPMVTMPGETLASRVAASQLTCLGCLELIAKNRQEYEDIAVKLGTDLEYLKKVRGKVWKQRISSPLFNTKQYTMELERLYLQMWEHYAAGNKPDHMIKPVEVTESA
# UniProt O43924: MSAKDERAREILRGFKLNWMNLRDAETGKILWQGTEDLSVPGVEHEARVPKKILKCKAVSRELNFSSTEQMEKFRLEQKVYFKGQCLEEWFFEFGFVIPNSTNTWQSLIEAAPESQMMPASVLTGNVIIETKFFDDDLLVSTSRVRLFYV
# Some of the results follow.
# Compound: COc1ccc(Cn2ccc3ccc(C(=O)NO)cc32)cc1
# Assay: dose-dependent thermal stabilisation call (2D-TPP, DLPTP, 10% FDR) (binary (1 = stabilised)); higher = stabilised by the compound
# Conditions: system: HL-60 intact cells; concentration range 0.04-10 µM
row,Target,dose-dependent thermal stabilisation call
1,NSFL1C (UniProt Q9UNZ2),inactive: 0
2,PCK2 (UniProt Q16822),inactive: 0
3,PDPK1 (UniProt O15530),inactive: 0
4,PDE4DIP (UniProt Q5VU43),inactive: 0
5,PBX2 (UniProt P40425),inactive: 0
6,PCYT2 (UniProt Q99447),inactive: 0
7,NT5DC3 (UniProt Q86UY8),inactive: 0
8,PDE12 (UniProt Q6L8Q7),inactive: 0
9,PAFAH1B3 (UniProt Q15102),inactive: 0
10,NUPL2 (UniProt O15504),inactive: 0
11,PDP2 (UniProt Q9P2J9),inactive: 0
12,PATZ1 (UniProt Q9HBE1),inactive: 0
13,PELO (UniProt Q9BRX2),inactive: 0
14,PARVG (UniProt Q9HBI0),inactive: 0
15,OSTF1 (UniProt Q92882),inactive: 0
16,OPA1 (UniProt O60313),inactive: 0
17,NUDT16 (UniProt Q96DE0),inactive: 0
18,NRBF2 (UniProt Q96F24),inactive: 0
19,OSGEP (UniProt Q9NPF4),inactive: 0

# Taken from above for reference:
row,Target,dose-dependent thermal stabilisation call
6,PCYT2 (UniProt Q99447),inactive: 0
7,NT5DC3 (UniProt Q86UY8),inactive: 0
8,PDE12 (UniProt Q6L8Q7),inactive: 0
9,PAFAH1B3 (UniProt Q15102),inactive: 0
10,NUPL2 (UniProt O15504),inactive: 0
11,PDP2 (UniProt Q9P2J9),inactive: 0
12,PATZ1 (UniProt Q9HBE1),inactive: 0
13,PELO (UniProt Q9BRX2),inactive: 0
14,PARVG (UniProt Q9HBI0),inactive: 0
15,OSTF1 (UniProt Q92882),inactive: 0
16,OPA1 (UniProt O60313),inactive: 0

# The listing continues.

row,Target,dose-dependent thermal stabilisation call
1,ORMDL2 (UniProt Q53FV1),inactive: 0
2,PCYT1A (UniProt P49585),inactive: 0
3,PCIF1 (UniProt Q9H4Z3),inactive: 0
4,NUDT16L1 (UniProt Q9BRJ7),inactive: 0
5,P2RY11 (UniProt Q96G91),inactive: 0
6,PAPOLG (UniProt Q9BWT3),inactive: 0
7,OSBPL11 (UniProt Q9BXB4),inactive: 0
8,NUP62 (UniProt P37198),inactive: 0
9,NUP35 (UniProt Q8NFH5),inactive: 0
10,PARP10 (UniProt Q53GL7),inactive: 0
11,OCIAD1 (UniProt Q9NX40),inactive: 0
12,PCTK1 (UniProt Q00536),inactive: 0
13,OGT (UniProt O15294),inactive: 0
14,PATL1 (UniProt Q86TB9),inactive: 0
15,NUDT19 (UniProt A8MXV4),inactive: 0
16,NSMAF (UniProt Q92636),inactive: 0
17,PANK2 (UniProt Q9BZ23),inactive: 0
18,PDE6D (UniProt O43924),inactive: 0
19,OMA1 (UniProt Q96E52),inactive: 0
